PubChem BioAssay AID720505 | Drosophila RNAi Screening Center – 2013
Screen: 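Fly regulators or components of the CRAC channel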 (primary screen). Cells: Drosophila S2R+ cells. Reagent: long dsRNA against Drosophila genes. Conditions: thapsigargin (2 µM) in calcium-free buffer to empty internal stores, then 2 mM calcium added back. Measured: 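Fluo-4 signal in 384-well plates read on a FLIPR after thapsigargin (2 µM, calcium-free) store depletion and 2 mM calcium add-back; unnormalised mean endpoint per well; screen run twice, selected wells retested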. Direction: calcium signal and retest calcium signal: higher = more calcium entry after store depletion. Hit rule: 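About 1500 genes called as lowering calcium entry, by varying amounts, judged against per-plate control wells with STIM1 as positive and Rho1 as negative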. Calls: active = called as lowering calcium entry; inactive = not called.
The deposit covers about 20,000 reagents; shown is a random part of those that have a named target and a result. In the full data, about 2,100 (10%) were called active. 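Raw plate signals without normalisation; calls rest on control-based scores that were not deposited; replicate 2 separates called from uncalled poorly.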 A plus sign joins genes that one reagent is predicted to hit. No sequences are given here. Not given: the amount of reagent, the time to read-out.

Knock-down of rn (rotund) [SID104192292] gave: calcium signal, replicate 1 = 85.2; calcium signal, replicate 2 = 116; inactive. Against rn (rotund) [SID104192335], the values are calcium signal, replicate 1 = 85.9; calcium signal, replicate 2 = 166; inactive. Knock-down of rn (rotund) [SID104192336] resulted in: calcium signal, replicate 1 = 99.1; calcium signal, replicate 2 = 162; inactive. Against rn (rotund) [SID104192338], the entry reads calcium signal, replicate 1 = 85; calcium signal, replicate 2 = 107; inactive. Depletion of rn (rotund) [SID104201807] resulted in: calcium signal, replicate 1 = 133; calcium signal, replicate 2 = 214; inactive. After knock-down of glo (glorund) [SID104195937], the record shows calcium signal, replicate 1 = 138; calcium signal, replicate 2 = 108; inactive.

Ugt36D1 (UDP-glycosyltransferase family 36 member D1) [SID104182392] scored calcium signal, replicate 1 = 96.1; calcium signal, replicate 2 = 118; inactive. For bur (burgundy) [SID104182955] the deposit lists calcium signal, replicate 1 = 112; calcium signal, replicate 2 = 129; inactive. After knock-down of CG17919 [SID104192363] the results were calcium signal, replicate 1 = 127; calcium signal, replicate 2 = 135; inactive. Knock-down of CAH8 (Carbonic anhydrase 8) [SID104195576] gave: calcium signal, replicate 1 = 183; calcium signal, replicate 2 = 135; inactive. CG18577 [SID104195144] scored calcium signal, replicate 1 = 58.2; calcium signal, replicate 2 = 110; active. For CG32809 [SID104198299], the values are calcium signal, replicate 1 = 116; calcium signal, replicate 2 = 87.6; retest calcium signal, replicate 1 = 149; retest calcium signal, replicate 2 = 125; inactive.

With knock-down of CG32809 [SID104198384], the record shows calcium signal, replicate 1 = 74.6; calcium signal, replicate 2 = 79.4; active. TBPH (TAR DNA-binding protein-43 homolog) [SID104184452] gave calcium signal, replicate 1 = 108; calcium signal, replicate 2 = 97.2; inactive. Against TTLL1B (Tubulin tyrosine ligase-like 1B) [SID104188386] the deposit lists calcium signal, replicate 1 = 93.2; calcium signal, replicate 2 = 75.7; inactive. tomboy20 [SID104194705] scored calcium signal, replicate 1 = 158; calcium signal, replicate 2 = 88.6; inactive. Depletion of CG3281 [SID104195262] gave: calcium signal, replicate 1 = 142; calcium signal, replicate 2 = 115; inactive. After knock-down of CG33791 + CG12105 + CG18170 [SID104188179], the screen gave calcium signal, replicate 1 = 166; calcium signal, replicate 2 = 103; inactive.

For Orct (Organic cation transporter) [SID104196569], the entry reads calcium signal, replicate 1 = 198; calcium signal, replicate 2 = 325; inactive. Depletion of CG13436 [SID104186188] gave: calcium signal, replicate 1 = 77; calcium signal, replicate 2 = 89; inactive. CG8541 [SID104190781] gave calcium signal, replicate 1 = 122; calcium signal, replicate 2 = 95.9; inactive. For CG17715 [SID104191742], the entry reads calcium signal, replicate 1 = 80.4; calcium signal, replicate 2 = 84.4; active. spz (spatzle) [SID104196857] showed calcium signal, replicate 1 = 115; calcium signal, replicate 2 = 187; inactive. For Sgs4 (Salivary gland secretion 4) [SID104198507], the entry reads calcium signal, replicate 1 = 98.5; calcium signal, replicate 2 = 130; inactive.

With knock-down of lncRNA:CR43372 (long non-coding RNA:CR43372) [SID104194833], the record shows calcium signal, replicate 1 = 110; calcium signal, replicate 2 = 105; inactive. Silencing of l(2)k09913 (lethal (2) k09913) [SID104184491] came out at: calcium signal, replicate 1 = 160; calcium signal, replicate 2 = 126; inactive. After knock-down of Dhc16F (Dynein heavy chain at 16F) [SID104200034] the results were calcium signal, replicate 1 = 112; calcium signal, replicate 2 = 150; inactive. With knock-down of CG13795 [SID104182091], the screen gave calcium signal, replicate 1 = 54.6; calcium signal, replicate 2 = 109; active.
